For assay [1], the target named is isolated BIR3 domain of XIAP (UniProt P98170). Nature of the assay: GST pull-down competition, p12-GST on resin, BIR3 in solution.
Assay [2] has the same target. Nature of the assay: GST pull-down competition, 200 µM peptide, p12-GST as competitor partner.
For assay [3] the target is unchanged. Nature of the assay: GST pull-down competition, Smac-GST on resin, BIR3 in solution.
Assay [4] has the same target. Put plainly: GST pull-down competition, 200 µM peptide, Smac-GST as competitor partner.

Sequences of proteins named here, by UniProt entry; tags and fusion partners are left off. Residues count along the entry.
UniProt P98170, residues 238-358: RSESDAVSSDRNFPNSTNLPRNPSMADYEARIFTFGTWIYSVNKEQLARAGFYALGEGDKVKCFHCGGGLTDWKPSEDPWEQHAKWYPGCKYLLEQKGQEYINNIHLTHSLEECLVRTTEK

No constants are given. Whether binding was seen depends on the method and setting. Some results given as binding are weak or reduced against the parent protein; the word gives no strength.

Take AVPIAQK [Smac-N7 peptide (AVPIAQK)]: the binding entry in assay [1] and in assay [2] was “binds” throughout.
For the molecule ATPFQEGLRTFDQLD [chemically synthesized caspase-9 linker peptide (…)], the binding entry in assay [3] and in assay [4] was “binds” in each case.

The values are drawn from patent US20020160975A1, “Conserved XIAP-interaction motif in caspase-9 and Smac/DIABLO for mediating apoptosis” (Thomas Jefferson University, priority 2001, published 2002).
